Data taken from PubChem BioAssay AID912, deposited by NCATS (2007).

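Uptake of anthrax lethal toxin into cultured cells, read by FRET (460/530 nm ratio) and reported from the 460 nm channel; the cell line is not named here.
Each compound was tested as a concentration series from about 0.0005 to 40 µM.
The number is the fitted AC50 of the 460 nm signal alone; lower values mean a more potent effect. A falling signal goes with compounds filed as inhibitors or cytotoxic, a rising one with activators or fluorescent compounds (inferred from the filed classes).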

Values are in µM.
Common to all entries: measured here: 460 nm channel.
This is a side read-out of the assay, for part of the compounds, not drawn at random.
Potencies fitted to partial, single-point or poorly fitting curves are rough.
The first word of each remark tells which way the curve ran; it can be opposite to the aim of the assay.

| # | Compound | AC50 (µM) | curve as filed |
|---|---|---|---|
| 1 | `C[C@H](NCCN(C)C)[C@@H]1CCC2C3CCc4cc(O)ccc4[C@H]3CCC21C` (stereo not given in full) | 5.012 | falling, single point |
| 2 | `Cc1ccc(S(=O)(=O)N2CCN(C)CC2)cc1-c1nnc2c3ccccc3c(C)nn12` | 12.59 | rising, partial curve |
| 3 | `CN1CCN(c2ncnc3ccc(-c4cccc(NS(C)(=O)=O)c4)cc23)CC1` | 0.02512 | falling, full curve, poor fit |
| 4 | `CN1CCN(C(=O)CN(c2cccc(Cl)c2)S(=O)(=O)c2ccccc2)CC1` | 5.012 | rising, single point |
| 5 | `Cc1oc(C)c2c(=O)ccc3c(c12)OC(N)=C(C#N)C3c1ccccc1Cl` (stereo not given) | 3.162 | rising, full curve |
| 6 | `CCOCCOC(=O)C1=C(C)NC2=C(C(=O)CC(c3cccs3)C2)C1c1ccsc1` (stereo not given) | 7.943 | rising, partial curve |
| 7 | `COC(=O)[C@@]1(Cc2ccc(F)cc2)[C@H]2c3cc(C(=O)N(C)C)n(CCO)c3C[C@H]2CN1C(=O)c1ccccc1` | 10 | rising, partial curve |
| 8 | `CCOC(=O)CSc1nc2sc(C)c(C)c2c(=O)[nH]1` | 25.12 | rising, single point |
| 9 | `C=CC(=C)CC(NC)c1ccccc1` (stereo not given) | 0.003162 | falling, full curve, poor fit |
| 10 | `CCN(CC)CCOc1c(Br)ccc2c1sc1nc3n(c(=O)c12)CCC3` | 10 | falling, partial curve |
| 11 | `O=C(O)[C@@H]1[C@@H](C(=O)O)[C@]23C[C@@]2(C(=O)O)[C@]2(C(=O)O)CCC3=C3CCCC312` | 1 | rising, single point |
| 12 | `c1cncc(-c2ccc3ncnc(N4CCNCC4)c3c2)c1` | 0.02512 | falling, full curve, poor fit |
| 13 | `FC(F)(F)c1nc2ncc(Cl)cc2[nH]1` | 31.62 | falling, single point |
| 14 | `CCOC(=O)c1c(N)n(Cc2ccco2)c2nc3ccccc3nc12` | 10 | rising, partial curve |
| 15 | `COC(=O)C1(CC(C)C)C=C2C(=C(C(C)C)C(=O)C2C)CN1` (stereo not given) | 15.85 | falling, partial curve |
| 16 | `O=C(Nc1nc2c(s1)CCCC2)c1ccc2ncsc2c1` | 10 | falling, partial curve |
| 17 | `COc1ccc(-c2cc(C(F)F)n3ncc(C(=O)N4CCN5CCCC5C4)c3n2)cc1` (stereo not given) | 3.162 | rising, single point |
| 18 | `CCOC(=O)COc1ccc(S(=O)(=O)Nc2ccc3c(c2)OCCO3)cc1` | 31.62 | falling, single point |
| 19 | `C[C@@]12CC[C@H](O)C[C@@H]1CC[C@H]1[C@H]2CC[C@@]2(C)[C@@H](C3=CC(=O)OC3)CC[C@]12O` | 0.5012 | falling, full curve, poor fit |
| 20 | `CN1CCN(c2ncc3nc(-c4ccccc4)c(=O)n(Cc4ccc(F)cc4)c3n2)CC1` | 5.012 | rising, full curve |
| 21 | `COCCn1c(=O)c(-c2cccs2)nc2cnc(Oc3ccc(OC)cc3)nc21` | 12.59 | rising, partial curve |
| 22 | `CCn1c(N)c(C(=O)Nc2ccccc2C(=O)OC)sc1=S` | 10 | falling, partial curve |
| 23 | `COc1nc(-c2ccccc2)cc(-c2ccc(OC)c(OC)c2)n1` | 12.59 | falling, partial curve |
| 24 | `COc1ccc(-c2noc(COc3ccc4c(c3)OCO4)n2)cc1OC` | 5.012 | falling, single point |
| 25 | `OC[C@@H]1O[C@@H](n2cnc3c(NCc4ccco4)ncnc32)[C@H](O)[C@H]1O` | 1.259 | rising, full curve |
| 26 | `O=C(Nc1nnc(CCN2CCOCC2)s1)C1CCCCC1` | 6.31 | falling, partial curve |
| 27 | `CC(=O)NC(CCS(C)(=O)=O)C(=O)Nc1nccs1` (stereo not given) | 3.162 | falling, single point |
| 28 | `CCCCCCn1c(-c2ccco2)nc2oc3cc(OC)ccc3c(=O)c2c1=O` | 0.1 | falling, partial curve, poor fit |
| 29 | `Nn1cnn(Cc2ccccc2)c1=S` | 0.07943 | rising, single point |
| 30 | `CC(=O)NCCNc1ncncc1-c1ccccc1CN(C)C` | 25.12 | rising, single point |

For reference, 3 entries once more:

{"compound": "c1cncc(-c2ccc3ncnc(N4CCNCC4)c3c2)c1", "AC50 (µM)": "0.02512", "curve as filed": "falling, full curve, poor fit"}
{"compound": "C[C@H](NCCN(C)C)[C@@H]1CCC2C3CCc4cc(O)ccc4[C@H]3CCC21C", "stereo": "stereo not given in full", "AC50 (µM)": "5.012", "curve as filed": "falling, single point"}
{"compound": "CCn1c(N)c(C(=O)Nc2ccccc2C(=O)OC)sc1=S", "AC50 (µM)": "10", "curve as filed": "falling, partial curve"}